What was measured:
[1] = Friction coefficient of sample tape coated with the lubricant, after 1000 runs; conditions: 1 mg/m^2 on carbon film layer
[2] = Shuttle durability of sample tape: playback output change after 100 runs on AIT2 deck; conditions: difference between initial output and playback output after 100 runs; for Shuttle durability (dB) (−5° C.): 20% RH
[3] = Corrosion resistance: magnetic deterioration rate after storage in high-temperature, high-humidity environment; conditions: one week at 60° C. and 80% RH
[4] = Corrosion resistance: magnetic deterioration rate after storage in corrosive gas environment; conditions: 5 hours, 35° C., 70% RH, 2 ppm H2S and 1 ppm HCl

Compound	Friction coefficient (40° C., 80% RH) [1]	Shuttle durability (dB) (40° C., 20% RH) [2]	Shuttle durability (dB) (−5° C.) [2]	High-temperature, high-humidity environment (magnetic deterioration rate) ([3]; Tables 17 and 18)	Corrosive gas environment (magnetic deterioration rate) ([4]; Tables 17 and 18)	High-temperature, high-humidity environment (magnetic deterioration rate) ([3]; Tables 8 and 9)	Corrosive gas environment (magnetic deterioration rate) ([4]; Tables 8 and 9)
CCCCCCCCCCCCCCCCCCC(CC(=O)OCCCCCCCCCCCC(F)(F)C(F)(F)C(F)(F)C(F)(F)C(F)(F)C(F)(F)C(F)(F)C(F)(F)F)C(=O)OC(CC(=O)O)C(=O)O (stereo not shown) [Example 34, CF3(CF2)7(CH2)11OCOCH2CH(C18H37)COOCH(COOH)CH2COOH]	0.20	−0.8	−0.5	⊙ (magnetic deterioration rate is 1% or less)	⊙ (magnetic deterioration rate is 1% or less)	–	–
O=C(O)CC(CC(=O)OCCCCCCCCCCCC(F)(F)C(F)(F)C(F)(F)C(F)(F)F)C(=O)O (stereo not shown) [Example 23, CF3(CF2)3(CH2)11OCOCH2CH(COOH)CH2COOH]	0.20	−1.5	−1.0	⊙ (magnetic deterioration rate is 1% or less)	◯ (magnetic deterioration rate is 3% or less)	–	–
O=C(O)CC(OC(=O)CCCCCCCC(F)(F)C(F)(F)C(F)(F)C(F)(F)F)C(=O)O (stereo not shown) [Example 14, CF3(CF2)3(CH2)7COOCH(COOH)CH2COOH]	0.24	−1.0	−1.2	–	–	⊙ (magnetic deterioration rate is 1% or less)	◯ (magnetic deterioration rate is 3% or less)
CCCCCCCCC(CC(=O)OCCC(F)(F)C(F)(F)C(F)(F)C(F)(F)C(F)(F)C(F)(F)C(F)(F)C(F)(F)F)C(=O)OC(CC(=O)O)C(=O)O (stereo not shown) [Example 30, CF3(CF2)7(CH2)2OCOCH2CH(C8H17)COOCH(COOH)CH2COOH]	0.27	−1.5	−1.0	◯ (magnetic deterioration rate is 3% or less)	⊙ (magnetic deterioration rate is 1% or less)	–	–
O=C(O)CC(OC(=O)CCCCC(F)(F)C(F)(F)C(F)(F)C(F)(F)C(F)(F)C(F)(F)C(F)(F)C(F)(F)F)C(=O)O (stereo not shown) [Example 12, CF3(CF2)7(CH2)4COOCH(COOH)CH2COOH]	0.26	−1.0	−1.0	–	–	⊙ (magnetic deterioration rate is 1% or less)	⊙ (magnetic deterioration rate is 1% or less)
O=C(O)CC(OC(=O)C(F)(F)C(F)(F)C(F)(F)C(F)(F)C(F)(F)C(F)(F)C(F)(F)C(F)(F)F)C(=O)O (stereo not shown) [Example 5, CF3(CF2)7COOCH(COOH)CH2COOH]	0.27	−1.7	−1.0	–	–	◯ (magnetic deterioration rate is 3% or less)	⊙ (magnetic deterioration rate is 1% or less)
CF3(CF2)7(CH2)2OCOCH2CH(C18H35)COOCH(COOH)CH2COOH [Example 35]	0.24	−1.0	−1.0	⊙ (magnetic deterioration rate is 1% or less)	⊙ (magnetic deterioration rate is 1% or less)	–	–
O=C(O)CC(CC(=O)OCCCCCCC(F)(F)C(F)(F)C(F)(F)C(F)(F)F)C(=O)O (stereo not shown) [Example 10, CF3(CF2)3(CH2)6OCOCH2CH(COOH)CH2COOH]	0.23	−1.5	−1.0	–	–	⊙ (magnetic deterioration rate is 1% or less)	⊙ (magnetic deterioration rate is 1% or less)
CCCCCCCCCC(CC=CCCCCCCCC(=O)OC(CC(=O)O)C(=O)O)C(F)(F)C(F)(F)C(F)(F)C(F)(F)C(F)(F)C(F)(F)C(F)(F)C(F)(F)F (stereo not shown) [Example 18, CF3(CF2)7CH(C9H19)CH2CH═CH(CH2)7COOCH(COOH)CH2COOH]	0.20	−1.5	−0.5	–	–	⊙ (magnetic deterioration rate is 1% or less)	⊙ (magnetic deterioration rate is 1% or less)
CCCCCCCCCCCCCCCCCCOC(=O)CC(CC(=O)O)C(=O)O (stereo not shown) [Example 11, C18H37OCOCH2CH(COOH)CH2COOH]	0.26	−1.9	−1.5	–	–	◯ (magnetic deterioration rate is 3% or less)	⊙ (magnetic deterioration rate is 1% or less)
CCCCCCCCCCCCC(CC(=O)OCCC(F)(F)C(F)(F)C(F)(F)C(F)(F)C(F)(F)C(F)(F)C(F)(F)C(F)(F)F)C(=O)OC(CC(=O)O)C(=O)O (stereo not shown) [Example 29, CF3(CF2)7(CH2)2OCOCH2CH(C12H25)COOCH(COOH)CH2COOH]	0.25	−1.0	−0.8	⊙ (magnetic deterioration rate is 1% or less)	⊙ (magnetic deterioration rate is 1% or less)	–	–
O=C(O)CC(CC(=O)OCCCCCCCCCCCC(F)(F)C(F)(F)C(F)(F)C(F)(F)C(F)(F)C(F)(F)C(F)(F)C(F)(F)C(F)(F)C(F)(F)F)C(=O)O (stereo not shown) [Example 22, CF3(CF2)9(CH2)11OCOCH2CH(COOH)CH2COOH]	0.20	−1.0	−0.5	⊙ (magnetic deterioration rate is 1% or less)	⊙ (magnetic deterioration rate is 1% or less)	–	–
O=C(O)CC(OC(=O)CCCCCCCCCCC(F)(F)C(F)(F)C(F)(F)C(F)(F)C(F)(F)C(F)(F)C(F)(F)C(F)(F)F)C(=O)O (stereo not shown) [Example 1, CF3(CF2)7(CH2)10COOCH(COOH)CH2COOH]	0.20	−0.8	−0.3	–	–	⊙ (magnetic deterioration rate is 1% or less)	⊙ (magnetic deterioration rate is 1% or less)
CCCCCCCCCCCCCCCCCC(=O)OC(CC(=O)O)C(=O)O (stereo not shown) [Example 3, C17H35COOCH(COOH)CH2COOH]	0.25	−1.0	−0.5	–	–	⊙ (magnetic deterioration rate is 1% or less)	⊙ (magnetic deterioration rate is 1% or less)

Reference: patent US7323260B2, “Lubricant, recording medium and carboxylic acid compound” (Sony Corporation, priority 2003, dated 2008)
